Measurements: patent publication US12729225B2, “Non-canonical SWI/SNF complex and uses thereof” (Dana-Farber Cancer Institute, Inc., priority 2018, dated 2026)

B1: FTSJ3 (protein, UniProt Q8IY81 1-847, looked up)
pre-rRNA 2'-O-ribose RNA …: MGKKGKVGKSRRDKFYHLAKETGYRSRSAFKLIQLNRRFQFLQKARALLDLCAAPGGWLQVAAKFMPVSSLIVGVDLVPIKPLPNVVTLQQDITTERCRQALRKELKTWKVDVVLNDGAPNVGASWVHDAYSQAHLTLMALRLACDFLARGGSFITKVFRSRDYQPLLWIFQQLFRRVQATKPQASRHESAEIFVVCQGFLAPDKVDSKFFDPKFAFKEVEVQAKTVTELVTKKKPKAEGYAEGDLTLYHRTSVTDFLRAANPVDFLSKASEIMVDDEELAQHPATTEDIRVCCQDIRVLGRKELRSLLNWRTKLRRYVAKKLKEQAKALDISLSSGEEDEGDEEDSTAGTTKQPSKEEEEEEEEEQLNQTLAEMKAQEVAELKRKKKKLLREQRKQRERVELKMDLPGVSIADEGETGMFSLSTIRGHQLLEEVTQGDMSAADTFLSDLPRDDIYVSDVEDDGDDTSLDSDLDPEELAGVRGHQGLRDQKRMRLTEVQDDKEEEEEENPLLVPLEEKAVLQEEQANLWFSKGSFAGIEDDADEALEISQAQLLFENRRKGRQQQQKQQLPQTPPSCLKTEIMSPLYQDEAPKGTEASSGTEAATGLEGEEKDGISDSDSSTSSEEEESWEPLRGKKRSRGPKSDDDGFEIVPIEDPAKHRILDPEGLALGAVIASSKKAKRDLIDNSFNRYTFNEDEGELPEWFVQEEKQHRIRQLPVGKKEVEHYRKRWREINARPIKKVAEAKARKKRRMLKRLEQTRKKAEAVVNTVDISEREKVAQLRSLYKKAGLGKEKRHVTYVVAKKGVGRKVRRPAGVRGHFKVVDSRMKKDQRAQQRKEQKKKHKRK
B2: LUC7L2 (protein, UniProt Q9Y383 1-392, looked up)
Putative RNA-binding protein …: MSAQAQMRAMLDQLMGTSRDGDTTRQRIKFSDDRVCKSHLLNCCPHDVLSGTRMDLGECLKVHDLALRADYEIASKEQDFFFELDAMDHLQSFIADCDRRTEVAKKRLAETQEEISAEVAAKAERVHELNEEIGKLLAKVEQLGAEGNVEESQKVMDEVEKARAKKREAEEVYRNSMPASSFQQQKLRVCEVCSAYLGLHDNDRRLADHFGGKLHLGFIEIREKLEELKRVVAEKQEKRNQERLKRREEREREEREKLRRSRSHSKNPKRSRSREHRRHRSRSMSRERKRRTRSKSREKRHRHRSRSSSRSRSRSHQRSRHSSRDRSRERSKRRSSKERFRDQDLASCDRDRSSRDRSPRDRDRKDKKRSYESANGRSEDRRSSEEREAGEI
B3: LIAT1 (protein, UniProt Q6ZQX7 1-453, looked up)
Protein LIAT1: METRGPGLAVRAESRRLVGIGPRAPPGRVGLQPSGRLDRRGGAGTMGYKDNDGEEEEREGGAAGPRGSRLPPITGGASELAKRKVKKKKRKKKTKGSGKGDDKHQSQSLKSQPLSSSFHDILSPCKERGPKPEHRQSKVEKKHLPSDSSTVSLPDFAEIENLANRINESLRWDGILADPEAEKERIRIYKLNRRKRYRCLALKGFHPDPEALKGFHPDPDALKGFHPDPEALKGFHPDPEALKGFHPDPEALKGFHPDPEALKGIHPDPEALKGIHPDPEALKGFHPDPEALKGFHPDPEALKGFHTDPEALKGFHIDPEALKGFHPDPKALKGFHPDPKALKGFHTDPEALKGFHPDPKALKGFHPDPEALKGFHPDPEALKGFHPDPEALKGFHTDPNAEEAPENLPYLSDKDGSSSHRQPTSKAECPNLCFEGNLTPKLLHSDLAPTLLE
B4: ##OSGIN2 (protein, UniProt Q9Y236 1-505, looked up)
Oxidative stress-induced …: MPLVEETSLLEDSSVTFPVVIIGNGPSGICLSYMLSGYRPYLSSEAIHPNTILNSKLEEARHLSIVDQDLEYLSEGLEGRSSNPVAVLFDTLLHPDADFGYDYPSVLHWKLEQHHYIPHVVLGKGPPGGAWHNMEGSMLTISFGSWMELPGLKFKDWVSSKRRSLKGDRVMPEEIARYYKHYVKVMGLQKNFRENTYITSVSRLYRDQDDDDIQDRDISTKHLQIEKSNFIKRNWEIRGYQRIADGSHVPFCLFAENVALATGTLDSPAHLEIEGEDFPFVFHSMPEFGAAINKGKLRGKVDPVLIVGSGLTAADAVLCAYNSNIPVIHVFRRRVTDPSLIFKQLPKKLYPEYHKVYHMMCTQSYSVDSNLLSDYTSFPEHRVLSFKSDMKCVLQSVSGLKKIFKLSAAVVLIGSHPNLSFLKDQGCYLGHKSSQPITCKGNPVEIDTYTYECIKEANLFALGPLVGDNFVRFLKGGALGVTRCLATRQKKKHLFVERGGGDGIA
B5: UPF1 (protein, UniProt Q92900 1-1129, looked up)
Regulator of nonsense …: MSVEAYGPSSQTLTFLDTEEAELLGADTQGSEFEFTDFTLPSQTQTPPGGPGGPGGGGAGGPGGAGAGAAAGQLDAQVGPEGILQNGAVDDSVAKTSQLLAELNFEEDEEDTYYTKDLPIHACSYCGIHDPACVVYCNTSKKWFCNGRGNTSGSHIVNHLVRAKCKEVTLHKDGPLGETVLECYNCGCRNVFLLGFIPAKADSVVVLLCRQPCASQSSLKDINWDSSQWQPLIQDRCFLSWLVKIPSEQEQLRARQITAQQINKLEELWKENPSATLEDLEKPGVDEEPQHVLLRYEDAYQYQNIFGPLVKLEADYDKKLKESQTQDNITVRWDLGLNKKRIAYFTLPKTDSGNEDLVIIWLRDMRLMQGDEICLRYKGDLAPLWKGIGHVIKVPDNYGDEIAIELRSSVGAPVEVTHNFQVDFVWKSTSFDRMQSALKTFAVDETSVSGYIYHKLLGHEVEDVIIKCQLPKRFTAQGLPDLNHSQVYAVKTVLQRPLSLIQGPPGTGKTVTSATIVYHLARQGNGPVLVCAPSNIAVDQLTEKIHQTGLKVVRLCAKSREAIDSPVSFLALHNQIRNMDSMPELQKLQQLKDETGELSSADEKRYRALKRTAERELLMNADVICCTCVGAGDPRLAKMQFRSILIDESTQATEPECMVPVVLGAKQLILVGDHCQLGPVVMCKKAAKAGLSQSLFERLVVLGIRPIRLQVQYRMHPALSAFPSNIFYEGSLQNGVTAADRVKKGFDFQWPQPDKPMFFYVTQGQEEIASSGTSYLNRTEAANVEKITTKLLKAGAKPDQIGIITPYEGQRSYLVQYMQFSGSLHTKLYQEVEIASVDAFQGREKDFIILSCVRANEHQGIGFLNDPRRLNVALTRARYGVIIVGNPKALSKQPLWNHLLNYYKEQKVLVEGPLNNLRESLMQFSKPRKLVNTINPGARFMTTAMYDAREAIIPGSVYDRSSQGRPSSMYFQTHDQIGMISAGPSHVAAMNIPIPFNLVMPPMPPPGYFGQANGPAAGRGTPKGKTGRGGRQKNRFGLPGPSQTNLPNSQASQDVASQPFSQGALTQGYISMSQPSQMSQPGLSQPELSQDSYLGDEFKSQIDVALSQDSTYQGERAYQHGGVTGLSQY
B6: ##FRG2B (protein, UniProt Q96QU4 1-278, looked up)
Protein FRG2-like-1: MGKGNEDPDLHCSSIQCSTDQPPFQQISFTEKGSDEKKPFKEKGKTAFSHSSEKHIQRQGSEPNPNKENSEETKLKAGNSTAGSEPESSSYRENCRKRKMSSKDSCQDTAGNCPEKECSLSLNKKSRSSTPVHNSEIQETCDAHHRGRSRACTGRSKRHRSRALGVQTPSIRKSLVTSVRAMSEAVYQDLAQVWAQQIHSPLTCEQLTLLTRLRGPLCAQVQTLYSMATQAAYVFPAESWLVPATLPGPGESALDREAHPFPGQEITETVSGSDEAKL
B7: ##PDE4B (protein, UniProt Q07343 1-736, looked up)
3',5'-cyclic-AMP …: MKKSRSVMTVMADDNVKDYFECSLSKSYSSSSNTLGIDLWRGRRCCSGNLQLPPLSQRQSERARTPEGDGISRPTTLPLTTLPSIAITTVSQECFDVENGPSPGRSPLDPQASSSAGLVLHATFPGHSQRRESFLYRSDSDYDLSPKAMSRNSSLPSEQHGDDLIVTPFAQVLASLRSVRNNFTILTNLHGTSNKRSPAASQPPVSRVNPQEESYQKLAMETLEELDWCLDQLETIQTYRSVSEMASNKFKRMLNRELTHLSEMSRSGNQVSEYISNTFLDKQNDVEIPSPTQKDREKKKKQQLMTQISGVKKLMHSSSLNNTSISRFGVNTENEDHLAKELEDLNKWGLNIFNVAGYSHNRPLTCIMYAIFQERDLLKTFRISSDTFITYMMTLEDHYHSDVAYHNSLHAADVAQSTHVLLSTPALDAVFTDLEILAAIFAAAIHDVDHPGVSNQFLINTNSELALMYNDESVLENHHLAVGFKLLQEEHCDIFMNLTKKQRQTLRKMVIDMVLATDMSKHMSLLADLKTMVETKKVTSSGVLLLDNYTDRIQVLRNMVHCADLSNPTKSLELYRQWTDRIMEEFFQQGDKERERGMEISPMCDKHTASVEKSQVGFIDYIVHPLWETWADLVQPDAQDILDTLEDNRNWYQSMIPQSPSPPLDEQNRDCQGLMEKFQFELTLDEEDSEGPEKEGEGHSYFSSTKTLCVIDPENRDSLGETDIDIATEDKSPVDT
B8: FBXL18 (protein, UniProt Q96ME1 1-718, looked up)
F-box/LRR-repeat protein 18: MASSGEDISNDDDDMHPAAAGMADGVHLLGFSDEILLHILSHVPSTDLILNVRRTCRKLAALCLDKSLIHTVLLQKDYQASEDKVRQLVKEIGREIQQLSMAGCYWLPGSTVEHVARCRSLVKVNLSGCHLTSLRLSKMLSALQHLRSLAIDVSPGFDASQLSSECKATLSRVRELKQTLFTPSYGVVPCCTSLEKLLLYFEILDRTREGAILSGQLMVGQSNVPHYQNLRVFYARLAPGYINQEVVRLYLAVLSDRTPQNLHAFLISVPGSFAESGATKNLLDSMARNVVLDALQLPKSWLNGSSLLQHMKFNNPFYFSFSRCTLSGGHLIQQVINGGKDLRSLASLNLSGCVHCLSPDSLLRKAEDDIDSSILETLVASCCNLRHLNLSAAHHHSSEGLGRHLCQLLARLRHLRSLSLPVCSVADSAPRADRAPAQPAMHAVPRGFGKKVRVGVQSCPSPFSGQACPQPSSVFWSLLKNLPFLEHLELIGSNFSSAMPRNEPAIRNSLPPCSRAQSVGDSEVAAIGQLAFLRHLTLAQLPSVLTGSGLVNIGLQCQQLRSLSLANLGMMGKVVYMPALSDMLKHCKRLRDLRLEQPYFSANAQFFQALSQCPSLQRLCLVSRSGTLQPDAVLAFMARCLQVVMCHLFTGESLATCKSLQQSLLRSFQAERPALNVVIFPLLHEGLTDVIRDVPLVHLDEITLFKSRVAEEPPNLWW
B9: HSP90B2P (protein, UniProt Q58FF3 1-399, looked up)
Putative endoplasmin-like …: MAETIQEVEDEYKAFCKSFSKESDDPVACIHFTAEGEVTFKSILFVPTFVPRGLFDEYGSKKSDYIKLYVRCVFITDDFRDTMPKNLNFVKGVVDSGGLSLNVSCETLQQHKLLKVIRKKLVHKTLDMIKKIADEKYNDTFWKEFGTNIKLGVIEDHSNRTCLAKLLRFQSSHHPADITSLHQDVERMKEKQDKICLMAGGYEVIYLTEPVVEYCIQALPEFDGKRFQNVAKEGVKFDDSEKTKESHEAVEKEFEPLPNWVKDKAIKDKIEKAMVSQCLTESLCALVASQYGWSGNMERIMKAQAYQTGKGISTNYHASRKKTFEINPRHPLIRDMLRRIKEDEDDKTVLDLAVVEEPDEEPEETAEDKEQDKDKEMDVGTDEEKQETAKESTAEKDEL
B10: NOL7 (protein, UniProt Q9UMY1 1-257, looked up)
U3 small nucleolar …: MVQLRPRASRAPASAEAMVDEGQLASEEEEAEHGLLLGQPSSGAAAEPLEEDEEGDDEFDDEAPEELTFASAQAEAREEERRVRETVRRDKTLLKEKRKRREELFIEQKKRKLLPDTILEKLTTASQTNIKKSPGKVKEVNLQKKNEDCEKGNDSKKVKVQKVQSVSQNKSYLAVRLKDQDLRDSRQQAAQAFIHNSLYGPGTNRTTVNKFLSLANKRLPVKRAAVQFLNNAWGIQKKQNAKRFKRRWMVRKMKTKK

Test system: mSWI/SNF complexes
Assay: mSWI/SNF complex purification with HA-tagged baits and mass spectrometry (peptide counts)
Parameters: species or system human
[1] = 293_HA-BRD7: HA-BRD7 bait purification, total peptide count per co-purified protein
[2] = 293_HA-BRD7: HA-BRD7 bait purification, unique peptide count per co-purified protein
[3] = 293_HA-BRD7 bait purification, mass spectrometry, total peptide count per identified protein
[4] = 293_HA-BRD7 bait purification, mass spectrometry, unique peptide count per identified protein

| Molecule | Total [1] | Unique [2] | Total [3] | Unique [4] |
| --- | --- | --- | --- | --- |
| B1 | 11 | 11 | – | – |
| B2 | 12 | 11 | – | – |
| B3 | – | – | 1 | 1 |
| B4 | – | – | 1 | 1 |
| B5 | – | – | 1 | 1 |
| B6 | – | – | 1 | 1 |
| B7 | – | – | 1 | 1 |
| B8 | – | – | 1 | 1 |
| B9 | – | – | 1 | 1 |
| B10 | – | – | 1 | 1 |
